Results reported in publication PMC11297322, “MEILB2-BRME1 forms a V-shaped DNA clamp upon BRCA2-binding in meiotic recombination” (Nature Communications, 2023).

Columns and labels:
Test in all cases: EMSA
[1] = tested on: BRCA2MBD + MEILB2 (22-338) + BRME1MBD; details: EMSA: 20 mM HEPES pH 7.5, 325 mM KCl, 60 min room temperature; 0.4% agarose, 0.5x TBE pH 8.0, 4 C; 50 uM DNA per bp/base (qualitative); recombinant protein
MEILB2 K26E + BRME1MBD = details: slight hint of binding at highest concentration; EMSA: 20 mM HEPES pH 7.5, 325 mM KCl, 60 min room temperature; 0.4% agarose, 0.5x TBE pH 8.0, 4 C; 50 uM DNA per bp/base (qualitative); recombinant protein; protein details: His6-MBP tag, TEV-cleaved,His6 tag, TEV-cleaved
[2] = tested on: MEILB2 (22-338) + BRME1MBD R540E R549E; details: EMSA: 20 mM HEPES pH 7.5, 325 mM KCl, 60 min room temperature; 0.4% agarose, 0.5x TBE pH 8.0, 4 C; 50 uM DNA per bp/base (qualitative); recombinant protein; protein details: His6-MBP tag, TEV-cleaved,His6 tag, TEV-cleaved
[3] = tested on: BRCA2MBD + MEILB2 (22-338) + BRME1MBD R540E R549E; details: EMSA: 20 mM HEPES pH 7.5, 325 mM KCl, 60 min room temperature; 0.4% agarose, 0.5x TBE pH 8.0, 4 C; 50 uM DNA per bp/base (qualitative); recombinant protein
[4] = tested on: BRCA2MBD + MEILB2 (22-338) + BRME1MBD deltaRKTK; details: small discrete species, then larger; EMSA: 20 mM HEPES pH 7.5, 325 mM KCl, 60 min room temperature; 0.4% agarose, 0.5x TBE pH 8.0, 4 C; 50 uM DNA per bp/base (qualitative); recombinant protein
[5] = tested on: BRCA2MBD + MEILB2 K26E + BRME1MBD; details: single discrete species; EMSA: 20 mM HEPES pH 7.5, 325 mM KCl, 60 min room temperature; 0.4% agarose, 0.5x TBE pH 8.0, 4 C; 50 uM DNA per bp/base (qualitative); recombinant protein
[6] = tested on: MEILB2 (22-338) + BRME1MBD; details: saturation at one 2:2 complex per 10 bp; EMSA: 20 mM HEPES pH 7.5, 325 mM KCl, 60 min room temperature; 0.4% agarose, 0.5x TBE pH 8.0, 4 C; 50 uM DNA per bp/base (qualitative); recombinant protein; protein details: His6-MBP tag, TEV-cleaved,His6 tag, TEV-cleaved

Sequence: ATGGAATCTAAAGAAGAATTTGTTAAAGTCAGAAAGAAGGACCTGGAACGGCTGACGACGGAAGTGATGCAAATACGGGACTTCTTACCCAGAATACTAAATGGGGAGTTACTGGAAAGTTTCCAGAAATTAAAGATGGTAGAAAAAAACCTGGAAAGAAAAGAACAAGAATTAGAGCAACTGATAATGGACCGTGAACACTTCAAAGCCCGGCTAGAAACTGCACAGGCAGACAGTGGGAGGGAGAAGAAGGAGAAGTTGGCTCTTCGACAGCAGCTGAATGAGGCAAAACAGCAGCTC (double strand) [300 bp dsDNA]
- binding result [1]: binds
- binding result (MEILB2 K26E + BRME1MBD): binds more weakly
- binding result [2]: no binding
- binding result [3]: no binding
- binding result [4]: binds
- binding result [5]: binds
- binding result [6]: binds

For some of these results: No signal at the amounts used counts as a negative. For some of these results: A weaker result is weaker than the reference pair of the same experiment.
